According to patent KR20100075412A, “방사성 세포 표지자” (경북대학교 산학협력단, priority 2008, dated 2010):
At least one structure is not confirmed: it was looked up by name or label, or the drawing left a doubt.

Columns and labels:
[1] = system: rat cardiomyocytes L6 [랫트(rat) 심근세포 L6]; assay: Gamma camera imaging of labelled L6 cells transplanted into rat myocardium; type: in vivo; conditions: L6 labelled for 2 h, transplanted directly into rat myocardium, during 2 weeks
[2] = system: MDCK cells [MDCK 세포]; assay: Gamma camera imaging of labelled MDCK cells in mice; type: in vivo; conditions: 30 min after injection into mouse
[3] = system: cells [세포]; conditions: cited from earlier work
[4] = system: labelled cells [표지한 세포]; assay: MicroPET imaging after tail vein injection of [124I]HIB-labelled cells; type: in vivo; conditions: mouse

CCCCCCCC/C=C\CCCCCCCCOC(=O)c1ccc([131I])cc1 [[131I]OIB]
metastasis to other organs (gamma camera) [1]: 다른 장기의 전이를 볼 수 없었다

CCCCCCCCCCCCCCCCOC(=O)c1ccc([131I])cc1 [[131I]HIB]
accumulation site of labelled MDCK cells (gamma camera) [2]: 폐에 축적됨

CCCCCCCCCCCCCCCCOC(=O)c1ccc([18F])cc1 [[18F]HFB, Hexadecylfluorobenzoate]
suitability as cell trafficking agent ([3]; F-18 half-life 110 min): 단기 표지자 (short-term trafficking agent)로만 적합
labelling efficiency [3]: 표지 효율이 높은

CCCCCCCCCCCCCCCCOC(=O)c1ccc([124I])cc1 [[124I]HIB]
suitability as long-term cell trafficking agent ([4]; microPET): 긴 시간동안의 세포 표지자 (cell trafficking agent)로 사용 가능함을 확인
accumulation site of labelled cells (microPET) ([4]; tail vein injection of [124I]HIB-labelled cells): 대부분이 폐에 축적
